{"source": "PubChem BioAssay AID1259405 (NCATS, 2018)", "test": "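Mouse-designed siRNAs used to find CHO productivity engineering targets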 (primary screen)", "cells": "Chinese hamster CHO-K1 ovary cells with stable secreted eGFP expression", "reagents": "single siRNA against mouse genes, 0.8 pmol siRNA per well (2 µl of 400 nM stock)", "timing": "3 days", "measured": "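Percent of the per-plate non-targeting control median for intracellular GFP per well by laser scanning cytometry and for cell viability by ATP luminescence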", "reading the numbers": "GFP, % of control: higher = more GFP per well, higher productivity; viability (ATP), % of control: higher = more viable cells (more ATP)", "call rule": "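Called active when intracellular GFP, relative to negative control, is at or above 120%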", "note": "Here is one part, drawn at random, of about 50,000 reagents. About 4,000 of them (8%) count as active. 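Mouse siRNA library applied to hamster cells; one well for each siRNA.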 Entries without a mark were called inactive. Reagent sequences are not shown."}
{"target": "Foxn4 (forkhead box N4)", "PubChem SID": "SID363573203", "GFP, % of control": 85.5, "viability (ATP), % of control": 67.5}
{"target": "Foxn4 (forkhead box N4)", "PubChem SID": "SID363588442", "GFP, % of control": 45.7, "viability (ATP), % of control": 55.3}
{"target": "Ddi2 (DNA-damage inducible protein 2)", "PubChem SID": "SID363547365", "GFP, % of control": 78, "viability (ATP), % of control": 76.6}
{"target": "Ddi2 (DNA-damage inducible protein 2)", "PubChem SID": "SID363558134", "GFP, % of control": 70.6, "viability (ATP), % of control": 67.2}
{"target": "Ddi2 (DNA-damage inducible protein 2)", "PubChem SID": "SID363559892", "GFP, % of control": 73.8, "viability (ATP), % of control": 54.3}
{"target": "Gon4l (gon-4 like)", "PubChem SID": "SID363547392", "GFP, % of control": 98.6, "viability (ATP), % of control": 68.2}
{"target": "Gon4l (gon-4 like)", "PubChem SID": "SID363558161", "GFP, % of control": 85.1, "viability (ATP), % of control": 100}
{"target": "Gon4l (gon-4 like)", "PubChem SID": "SID363559919", "GFP, % of control": 67.1, "viability (ATP), % of control": 85.1}
{"target": "Gas1 (growth arrest specific 1)", "PubChem SID": "SID363540067", "GFP, % of control": 52.8, "viability (ATP), % of control": 52.5}
{"target": "Gas1 (growth arrest specific 1)", "PubChem SID": "SID363561368", "GFP, % of control": 71.6, "viability (ATP), % of control": 76.7}
{"target": "Gas1 (growth arrest specific 1)", "PubChem SID": "SID363564404", "GFP, % of control": 85.4, "viability (ATP), % of control": 87.7}
{"target": "Fkbp4 (FK506 binding protein 4)", "PubChem SID": "SID363572596", "GFP, % of control": 61.2, "viability (ATP), % of control": 75}
{"target": "Fkbp4 (FK506 binding protein 4)", "PubChem SID": "SID363577876", "GFP, % of control": 117, "viability (ATP), % of control": 110}
{"target": "Fkbp4 (FK506 binding protein 4)", "PubChem SID": "SID363582100", "GFP, % of control": 119, "viability (ATP), % of control": 123}
{"target": "Prss42 (serine protease 42)", "PubChem SID": "SID363574527", "GFP, % of control": 98.6, "viability (ATP), % of control": 116}
{"target": "Prss42 (serine protease 42)", "PubChem SID": "SID363575583", "GFP, % of control": 46.9, "viability (ATP), % of control": 56}
{"target": "Prss42 (serine protease 42)", "PubChem SID": "SID363580159", "GFP, % of control": 76.9, "viability (ATP), % of control": 54.9}
{"target": "Rimoc1 (RAB7A interacting MON1-CCZ1 complex subunit 1)", "PubChem SID": "SID363546570", "GFP, % of control": 51.5, "viability (ATP), % of control": 65.6}
{"target": "Rimoc1 (RAB7A interacting MON1-CCZ1 complex subunit 1)", "PubChem SID": "SID363548326", "GFP, % of control": 56, "viability (ATP), % of control": 61.4}
{"target": "Rimoc1 (RAB7A interacting MON1-CCZ1 complex subunit 1)", "PubChem SID": "SID363560504", "GFP, % of control": 73.1, "viability (ATP), % of control": 68.3}
{"target": "Nuak2 (NUAK family, SNF1-like kinase, 2)", "PubChem SID": "SID363570725", "GFP, % of control": 86.9, "viability (ATP), % of control": 80.6}
{"target": "Cpne7 (copine VII)", "PubChem SID": "SID363550093", "GFP, % of control": 72.5, "viability (ATP), % of control": 87}
{"target": "Cpne7 (copine VII)", "PubChem SID": "SID363564602", "GFP, % of control": 53.6, "viability (ATP), % of control": 69.2}
{"target": "Cpne7 (copine VII)", "PubChem SID": "SID363588147", "GFP, % of control": 98.4, "viability (ATP), % of control": 82.2}
{"target": "Dalrd3 (DALR anticodon binding domain containing 3)", "PubChem SID": "SID363552245", "GFP, % of control": 61.4, "viability (ATP), % of control": 85.6}
{"target": "Dalrd3 (DALR anticodon binding domain containing 3)", "PubChem SID": "SID363585381", "GFP, % of control": 105, "viability (ATP), % of control": 83.3}
{"target": "Dalrd3 (DALR anticodon binding domain containing 3)", "PubChem SID": "SID363585732", "GFP, % of control": 101, "viability (ATP), % of control": 131}
{"target": "Mapkap1 (mitogen-activated protein kinase associated protein 1)", "PubChem SID": "SID363555394", "GFP, % of control": 80.7, "viability (ATP), % of control": 60.9}
{"target": "Mapkap1 (mitogen-activated protein kinase associated protein 1)", "PubChem SID": "SID363564055", "GFP, % of control": 46.4, "viability (ATP), % of control": 54}
{"target": "Mapkap1 (mitogen-activated protein kinase associated protein 1)", "PubChem SID": "SID363587601", "GFP, % of control": 108, "viability (ATP), % of control": 97.4}
{"target": "Maea (macrophage erythroblast attacher)", "PubChem SID": "SID363562333", "GFP, % of control": 65.3, "viability (ATP), % of control": 59.1}
{"target": "Maea (macrophage erythroblast attacher)", "PubChem SID": "SID363567471", "GFP, % of control": 65.2, "viability (ATP), % of control": 64.5}
{"target": "Maea (macrophage erythroblast attacher)", "PubChem SID": "SID363584828", "GFP, % of control": 34.9, "viability (ATP), % of control": 68.6}
{"target": "Dtd1 (D-tyrosyl-tRNA deacylase 1)", "PubChem SID": "SID363584537", "GFP, % of control": 69.3, "viability (ATP), % of control": 79.5}
{"target": "Dtd1 (D-tyrosyl-tRNA deacylase 1)", "PubChem SID": "SID363589567", "GFP, % of control": 76.4, "viability (ATP), % of control": 81.1}
{"target": "Or4x15 (olfactory receptor family 4 subfamily X member 15)", "PubChem SID": "SID363554289", "GFP, % of control": 97.7, "viability (ATP), % of control": 112}
{"target": "Or4x15 (olfactory receptor family 4 subfamily X member 15)", "PubChem SID": "SID363567736", "GFP, % of control": 113, "viability (ATP), % of control": 47.7}
{"target": "Or4x15 (olfactory receptor family 4 subfamily X member 15)", "PubChem SID": "SID363585093", "GFP, % of control": 71, "viability (ATP), % of control": 73.4}
{"target": "Tmem14a (transmembrane protein 14A)", "PubChem SID": "SID363556336", "GFP, % of control": 62.4, "viability (ATP), % of control": 75.2}
{"target": "Tmem14a (transmembrane protein 14A)", "PubChem SID": "SID363586786", "GFP, % of control": 99.6, "viability (ATP), % of control": 128}
{"target": "Tmem14a (transmembrane protein 14A)", "PubChem SID": "SID363588894", "GFP, % of control": 74.7, "viability (ATP), % of control": 90.6}
{"target": "Slc24a1", "PubChem SID": "SID363574820", "GFP, % of control": 54.6, "viability (ATP), % of control": 59.3}
{"target": "Slc24a1", "PubChem SID": "SID363575876", "GFP, % of control": 57.7, "viability (ATP), % of control": 38}
{"target": "Slc24a1", "PubChem SID": "SID363580452", "GFP, % of control": 6.08, "viability (ATP), % of control": 9.9}
{"target": "Kmt2b (lysine (K)-specific methyltransferase 2B)", "PubChem SID": "SID363569581", "GFP, % of control": "145 (active)", "viability (ATP), % of control": 132}
{"target": "Kmt2b (lysine (K)-specific methyltransferase 2B)", "PubChem SID": "SID363577325", "GFP, % of control": 116, "viability (ATP), % of control": 122}
{"target": "Kmt2b (lysine (K)-specific methyltransferase 2B)", "PubChem SID": "SID363578733", "GFP, % of control": 94.1, "viability (ATP), % of control": 99.3}
{"target": "H13 (histocompatibility 13)", "PubChem SID": "SID363574452", "GFP, % of control": 84.6, "viability (ATP), % of control": 96.7}
{"target": "H13 (histocompatibility 13)", "PubChem SID": "SID363575508", "GFP, % of control": 52.9, "viability (ATP), % of control": 63.3}
{"target": "H13 (histocompatibility 13)", "PubChem SID": "SID363580084", "GFP, % of control": 52.8, "viability (ATP), % of control": 65.5}
{"target": "Uvrag (UV radiation resistance associated gene)", "PubChem SID": "SID363556582", "GFP, % of control": 62.6, "viability (ATP), % of control": 58.5}
{"target": "Uvrag (UV radiation resistance associated gene)", "PubChem SID": "SID363563486", "GFP, % of control": 68, "viability (ATP), % of control": 56.8}
{"target": "Uvrag (UV radiation resistance associated gene)", "PubChem SID": "SID363587032", "GFP, % of control": 85.6, "viability (ATP), % of control": 109}

Only “viability (ATP), % of control”, for 6 of the entries above:
Rimoc1 (RAB7A interacting MON1-CCZ1 complex subunit 1) [SID363546570]	65.6
Rimoc1 (RAB7A interacting MON1-CCZ1 complex subunit 1) [SID363548326]	61.4
Rimoc1 (RAB7A interacting MON1-CCZ1 complex subunit 1) [SID363560504]	68.3
Nuak2 (NUAK family, SNF1-like kinase, 2) [SID363570725]	80.6
Cpne7 (copine VII) [SID363550093]	87
Cpne7 (copine VII) [SID363564602]	69.2
